# Source: paper PMC8089095
# Chains of the proteins cited; added tags and fusions are not shown.
# UniProt O43474: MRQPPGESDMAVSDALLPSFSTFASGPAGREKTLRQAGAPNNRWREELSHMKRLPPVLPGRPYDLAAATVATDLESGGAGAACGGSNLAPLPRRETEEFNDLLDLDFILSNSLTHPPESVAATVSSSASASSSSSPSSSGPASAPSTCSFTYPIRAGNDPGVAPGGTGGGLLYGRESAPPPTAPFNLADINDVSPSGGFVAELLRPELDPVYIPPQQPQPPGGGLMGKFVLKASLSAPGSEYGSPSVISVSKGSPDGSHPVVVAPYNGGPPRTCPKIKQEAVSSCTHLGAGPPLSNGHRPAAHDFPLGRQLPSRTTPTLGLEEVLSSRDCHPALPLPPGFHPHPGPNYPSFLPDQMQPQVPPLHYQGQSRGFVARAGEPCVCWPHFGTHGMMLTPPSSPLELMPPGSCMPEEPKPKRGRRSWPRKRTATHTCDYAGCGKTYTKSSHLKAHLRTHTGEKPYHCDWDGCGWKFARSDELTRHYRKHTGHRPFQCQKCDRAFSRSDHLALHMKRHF
# Molecular target: T1, Flag-ITIH5 (inter-alpha-trypsin inhibitor heavy chain 5) (UniProt Q86UX2)
# T1 sequence: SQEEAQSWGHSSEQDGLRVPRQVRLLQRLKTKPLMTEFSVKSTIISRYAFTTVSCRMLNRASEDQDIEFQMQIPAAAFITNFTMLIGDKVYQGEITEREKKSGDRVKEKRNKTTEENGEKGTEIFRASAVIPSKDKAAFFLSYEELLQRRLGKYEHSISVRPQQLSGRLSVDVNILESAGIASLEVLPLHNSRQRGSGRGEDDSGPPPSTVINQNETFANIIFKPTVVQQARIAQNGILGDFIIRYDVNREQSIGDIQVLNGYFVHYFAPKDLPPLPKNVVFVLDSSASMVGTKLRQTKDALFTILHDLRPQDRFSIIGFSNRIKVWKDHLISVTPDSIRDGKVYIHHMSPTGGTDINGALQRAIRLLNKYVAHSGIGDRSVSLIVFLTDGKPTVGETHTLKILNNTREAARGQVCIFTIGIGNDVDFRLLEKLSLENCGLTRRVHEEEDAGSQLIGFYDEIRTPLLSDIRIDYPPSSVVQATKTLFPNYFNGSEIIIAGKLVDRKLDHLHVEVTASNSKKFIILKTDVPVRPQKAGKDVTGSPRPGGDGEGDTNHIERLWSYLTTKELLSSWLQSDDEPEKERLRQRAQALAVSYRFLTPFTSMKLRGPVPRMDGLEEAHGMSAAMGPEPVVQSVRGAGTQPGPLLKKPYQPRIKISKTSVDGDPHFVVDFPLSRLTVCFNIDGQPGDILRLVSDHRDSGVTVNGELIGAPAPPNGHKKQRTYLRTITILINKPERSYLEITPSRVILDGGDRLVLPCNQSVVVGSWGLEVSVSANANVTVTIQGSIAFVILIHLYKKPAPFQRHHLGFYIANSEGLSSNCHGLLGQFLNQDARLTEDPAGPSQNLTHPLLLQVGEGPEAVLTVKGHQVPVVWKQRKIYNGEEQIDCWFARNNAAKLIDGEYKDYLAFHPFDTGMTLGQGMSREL
# Assay: affinity purification with mass spectrometry; 293T cell lysates with or without Flag-ITIH5 overexpression incubated with Flag antibody; bound proteins eluted, SDS-PAGE, CBB staining, band identified
substance,measurement,value
"KLF4, endogenous in 293T cells (from UniProt O43474 1-513)",binding,binds

# Results are given in words; binding and its absence hold for the method and conditions named. Binding seen in cells or lysates may run through a third protein. A yes stands for co-enrichment or nearness to the bait. Other partners may have been found. Where a sequence is shown, tags or fusion partners need not be part of it.
